Laboratory results from patent US7989466B2, “Methods to inhibit or augment an inflammatory response” (Cambridge Enterprise Limited, priority 1999, dated 2011).
At least one peptide structure holds a part that was inferred or is arguable (an end, a ring closure or a residue). Some results were stated once for a whole list of compounds, not compound by compound. Residues, ends and D or L forms follow the SMILES beside them. No end group written: not given here.

Legend:
[1] = test system: HIV; assay type: cell-based
[2] = test system: chemokine-induced THP-1 migration; assay: THP-1 trans-well migration assay, panel of chemokines (MCP-1, MIP1α, IL-8, SDF1α); assay type: cell-based, human; conditions: for % inhibition at 100 μM of migration induced by any of the chemokines tested: THP-1; for effect on THP-1 migration induced by the chemokine panel, in words: MCP-1, MIP1α, IL-8, SDF1α
[3] = test system: MCP-1 induced THP-1 migration; assay: THP-1 trans-well migration assay, MCP-1 as chemoattractant; assay type: cell-based, human; conditions: for EC50: read-out: ED50 versus MCP-1, inhibition of THP-1 migration; for % inhibition at 100 μM versus MCP-1, THP-1 migration: agent with the cells, n.s. = no statistically significant inhibition
Description: To determine whether an agent inhibits a chemokine-induced activity, such as macrophage recruitment, varying amounts of the agent are mixed with cells in the presence of a known chemoattractant. For example, a range of known concentrations of an agent, e.g., a chemokine peptide, is incubated with a defined number (e.g., 10^4-10^6) of human THP-1 monocyte cells in individual wells of the top compartment of a trans-well plate. Chemokine (such as MCP-1, MIP1α, IL8 or SDF-1α), at a concentration known to cause significant migration of THP-1 cells in the trans-well migration assay, is placed in the lower compartment (FIG. 1). Cells are then incubated at 37° C. for a period sufficient to allow migration, e.g., 4 hours. After incubation, the cells are gently removed from the top of the filter with a pipette, 20 μl of 20 mM EDTA in simple PBS is added into each top well, and incubated for 20 minutes at 4° C. The filter is carefully flushed with media using a gentle flow, and removed. A standard curve consisting of a two-fold dilution series of THP-1 cells (in 29 μl) is prepared to accurately quantify the number of cells that have migrated. Migrated cells are stained with 3 μl of MTT stock dye solution which is added directly into each well (5 mg/ml in RPMI-1640 without phenol red, Sigma Chemical Co.) and incubated at 37° C. for 4 hours. The media is carefully aspirated from each well, and the converted dye is solubilized by 20 μl of DMSO. Absorbance of converted dye is measured at a wavelength of 595 nm using an ELISA plate reader. The number of migrated cells in each well is then determined by interpolation of the standard curve (see also Imai et al., J. Biol. Chem., 272, 15036 (1997)).
For this assay, THP-1 cells were maintained at a density of 4×10^5 cells per ml in RPMI-1640 supplemented with 10% fetal calf serum+20 μM 2-mercaptoethanol. Chemotaxis was induced in a 96-well disposable chemotaxis chamber fitted with a […] polycarbonate filter (PVP free, ChemoTX, Neuroprobe Inc., Cabin John). Twenty-nine μl of chemoattractant (recombinant human chemokine; 50 ng/ml, i.e., 5.9 nM) or control (100 ng/ml TGFβ) was added to the lower compartment of each well. The framed filter was aligned with the holes in the corner of the filter frame and placed over the wells. Five×10^4 THP-1 cells in 25 μl of RPMI-1640 were added to the upper compartment. Peptides were dissolved in Milli Q water and then serially diluted in culture medium. In most cases, the serially diluted peptides were added to the upper compartment of the chemotaxis chamber. The chamber was incubated at 37° C. in a humidified atmosphere of 5% CO2 for 4 hours.
After incubation, the cells were gently removed from the top of the filter with a pipette, 20 μl of 20 mM EDTA in PBS was added into each top well, and the mixture was incubated for 20 minutes at 4° C. The filter was then carefully flushed with media using a gentle flow, and removed. A standard curve was prepared to accurately quantify the number of THP-1 cells that had migrated. The curve was based on a two-fold dilution series of THP-1 cells (top standard 100,000 cells in 29 μl). Cells which had migrated, and in separate wells, the cells in the standards, were stained with 3 μl of MTT stock solution which was added directly into each well (5 mg/ml in RPMI 1640 without phenol red, Sigma Chemical Co.) and incubated at 37° C. for 4 hours. The media was carefully aspirated from each well, and the converted dye was solubilized by 20 μl of DMSO. Absorbance of converted dye was measured at a wavelength of 595 nm using an ELISA plate reader. The number of cells that had migrated in each well was determined by interpolation of the standard curve.

[4] = test system: IL8 induced human monocyte migration; assay: Human monocyte migration, IL8; assay type: cell-based; conditions: n.s. = no statistically significant inhibition
Description: (§1) Agents may also be screened in a chemotactic assay which employs human neutrophils, eosinophils, mast cells, basophils, platelets, lymphocytes or monocytes. For monocytes, 9 mls of fresh blood are transferred to a tube containing 1 ml of 3.8% sodium citrate, and left at room temperature for 15 minutes. Five mls of this anti-coagulated blood are carefully layered over 3.5 ml Polymorphprep® (Nycomed Pharma, Oslo), and centrifuged at 500 g for 35 minutes per the manufacturer's instructions. The top band at the sample/medium interface contains monocytes. The monocytes are carefully removed with a glass pipette, and reconstituted to the original volume (5 ml). The cells are washed with PBS plus 10% fetal calf serum, and centrifuged at 400 g for 10 minutes. The washing step is repeated three times before the cells are counted. Cells are resuspended at 1×10^7 cells/ml in RPMI-1640+10% fetal calf serum (FCS). The monocytes are cultured for two days at 37° C. in a humidified atmosphere of 5% CO2.
(§2) On day 2, the cells are counted, spun down, and reconstituted to 1×10^7 cells/ml in Gey's balanced salt solution+1 mg/ml bovine serum albumin (BSA). […]

[5] = test system: SDF-1α induced THP-1 migration; assay: THP-1 trans-well migration assay, SDF-1α as chemoattractant; assay type: cell-based, human
Description: (§3) To determine whether an agent inhibits a chemokine-induced activity, such as macrophage recruitment, varying amounts of the agent are mixed with cells in the presence of a known chemoattractant. For example, a range of known concentrations of an agent, e.g., a chemokine peptide, is incubated with a defined number (e.g., 10^4-10^6) of human THP-1 monocyte cells in individual wells of the top compartment of a trans-well plate. Chemokine (such as MCP-1, MIP1α, IL8 or SDF-1α), at a concentration known to cause significant migration of THP-1 cells in the trans-well migration assay, is placed in the lower compartment (FIG. 1). […] A standard curve consisting of a two-fold dilution series of THP-1 cells (in 29 μl) is prepared to accurately quantify the number of cells that have migrated. […] Absorbance of converted dye is measured at a wavelength of 595 nm using an ELISA plate reader. The number of migrated cells in each well is then determined by interpolation of the standard curve (see also Imai et al., J. Biol. Chem., 272, 15036 (1997)). […]
(§4) After incubation, the cells were gently removed from the top of the filter with a pipette, 20 μl of 20 mM EDTA in PBS was added into each top well, and the mixture was incubated for 20 minutes at 4° C. […] A standard curve was prepared to accurately quantify the number of THP-1 cells that had migrated. […]

[6] = test system: MCP-1 induced human monocyte migration; assay: Human monocyte migration, MCP-1; assay type: cell-based; conditions: n.s. = no statistically significant inhibition
Description: as §1, §2

[7] = test system: MIP1α induced THP-1 migration; assay: THP-1 trans-well migration assay, MIP1α as chemoattractant; assay type: cell-based, human
Description: as §3, §4

[8] = test system: TGFβ1 induced THP-1 migration; assay: THP-1 trans-well migration assay, TGFβ1 as non-chemokine control; assay type: cell-based, human
Description: Any method suitable for counting cells can be used, for example, counting with a hemocytometer, incubation of the cells with MTT (see above), or FACS analysis. A negative control assay is also performed, using TGF-β or another non-chemokine chemoattractant (e.g., IL1β or TNFα). To assess whether the agent is cytotoxic, the same concentrations of agent are incubated with THP-1 cells. Agents which 1) are not cytotoxic at levels which inhibit migration, 2) are ineffective at inhibiting the negative control-induced migration, and 3) reduce or inhibit chemokine-induced THP-1 migration, are agents which fall within the scope of the invention.
Chemotaxis was induced in a 96-well disposable chemotaxis chamber fitted with a […] polycarbonate filter (PVP free, ChemoTX, Neuroprobe Inc., Cabin John). […] The framed filter was aligned with the holes in the corner of the filter frame and placed over the wells. […] Peptides were dissolved in Milli Q water and then serially diluted in culture medium. In most cases, the serially diluted peptides were added to the upper compartment of the chemotaxis chamber. The chamber was incubated at 37° C. in a humidified atmosphere of 5% CO2 for 4 hours.
After incubation, the cells were gently removed from the top of the filter with a pipette, 20 μl of 20 mM EDTA in PBS was added into each top well, and the mixture was incubated for 20 minutes at 4° C. […]

[9] = test system: SDF-1α induced human monocyte migration; assay: Human monocyte migration, SDF-1α; assay type: cell-based; conditions: n.s. = no statistically significant inhibition
Description: as §1, §2

[10] = test system: MIP1α induced human monocyte migration; assay: Human monocyte migration, MIP1α; assay type: cell-based; conditions: n.s. = no statistically significant inhibition
Description: as §1, §2

[11] = test system: IL8 induced THP-1 migration; assay: THP-1 trans-well migration assay, IL-8 as chemoattractant; assay type: cell-based, human
Description: as §3, §4

[12] = test system: TGFβ1 induced human monocyte migration; assay: Human monocyte migration, TGFβ1; assay type: cell-based; conditions: n.s. = no statistically significant inhibition
Description: as §1, §2

[13] = agent with the cells in the upper compartment, n.s. = no statistically significant inhibition (p > 0.05)
[14] = 100 μM, n.s. = no statistically significant inhibition
[15] = n.s. = no statistically significant inhibition (p > 0.05)

With SYRRITSSKSPKEAV the “activity as an anti-HIV agent” value [1] was 1 to 100 nM.
For “SYRRITSSKCPKEAV [peptide 2(1-15)[MCP-1]]”, the “% inhibition at 100 μM of migration induced by any of the chemokines tested” value [2] was ≤ 20% and the EC50 [3, 13] was > 100 µM.
In the case of DYFETSSQCSKPGV [Pep2[MIP1a]], the “effect on THP-1 migration induced by the chemokine panel, in words” value [2] is reported as “did not inhibit”.
For `CC[C@H](C)[C@H](NC(=O)[C@H](C)NC(=O)[C@H](CC(=O)O)NC(=O)[C@@H]1CCCN1C(=O)[C@H](CCC(N)=O)NC(=O)[C@H](C)N)C(=O)N[C@@H](CC(N)=O)C(=O)N[C@@H](C)C(=O)N1CCC[C@H]1C(=O)N[C@H](C(=O)N[C@H](C(=O)N[C@@H](CS)C(=O)N[C@@H](CS)C(=O)O)[C@@H](C)O)C(C)C` [Peptide 1[MCP-1]] (H-AQPDAINAPVTCC-OH), the “% inhibition at 100 μM versus IL8, human monocyte migration” value [4] was “n.s”, the “% inhibition at 100 μM of migration induced by any of the chemokines tested” value [2] was ≤ 20% and the “effect on THP-1 migration induced by the chemokine panel, in words” value [2] was “no significant effect”. For the same compound, the “% inhibition at 100 μM versus SDF-1α, THP-1 migration” value [5, 14] was “n.s”, the “ED50 versus SDF-1α, inhibition of THP-1 migration” value [5, 15] was “n.s” and the “% inhibition at 100 μM versus MCP-1, human monocyte migration” value [6] was “n.s”. For the same compound, the “% inhibition at 100 μM versus MIP1α, THP-1 migration” value [7, 14] was “n.s.^b”, the “ED50 versus MIP1α, inhibition of THP-1 migration” value [7, 15] was “n.s.^b” and the “% inhibition at 100 μM versus TGFβ1, THP-1 migration” value [8, 14] was “n.s”. For the same compound, the “ED50 versus TGFβ1, inhibition of THP-1 migration” value [8, 15] was “n.s”, the “% inhibition at 100 μM versus SDF-1α, human monocyte migration” value [9] was “n.s” and the “% inhibition at 100 μM versus MIP1α, human monocyte migration” value [10] was “n.s”. The “% inhibition at 100 μM versus MCP-1, THP-1 migration” value ([3]; 100 μM) was 10%, the “% inhibition at 100 μM versus MCP-1, THP-1 migration” value ([3]; 100 μM, listed as Peptide 1 (SEQ ID NO: 2)) was “n.s.^b” and the “% inhibition of MCP-1 induced migration at 100 μM, peptide with the chemokine in the lower compartment” value ([3]; 100 μM, lower compartment) was 48%. The “ED50 versus MCP-1, inhibition of THP-1 migration” value [3, 13] was “n.s.^b”, the EC50 [3, 13] was > 100 µM and the “% inhibition at 100 μM versus IL8, THP-1 migration” value [11, 14] was “n.s”. The “ED50 versus IL8, inhibition of THP-1 migration” value [11, 15] was “n.s” and the “% inhibition at 100 μM versus TGFβ1, human monocyte migration” value [12] was “n.s”.
